Laboratory results: patent US9732137 (dated 2017)

Columns and labels:
[1] = general procedure: peptide synthesis; 2-chlorotritylchloride resin; Wang or trityl based resins; HBTU or HATU; alternatively PyBOP, PyBrOP, TFFH; DIC/HOAt; TCTU/DIPEA; details: TFA salt; for final HPLC purity: 220 nm
[2] = general procedure: peptide synthesis; 2-chlorotritylchloride resin 1% DVB; HBTU or HATU; alternatively PyBOP, PyBrOP, TFFH; DIC/HOAt; TCTU/DIPEA; details: whole synthesis, scale of the general procedure 0.25 mmol or 1.0 mmol, TFA salt; run 1
[3] = whole synthesis, scale of the general procedure 0.25 mmol or 1.0 mmol, run 2

Row | Substance | final HPLC purity ([1]; whole synthesis, scale of the general procedure 0.25 mmol or 1.0 mmol, run 1) [%] | final HPLC purity [1, 3] [%] | isolated yield [1, 3] [%] | isolated yield [2] [%] | step yield ([1]; late stage modification step) [%]
1 | Fmoc-His(Boc)-Aib-Glu(O-Tbu)-Gly-OH | 99.0 | 98.7 | 80 | 45 | 
2 | Fmoc-His(Boc)-Aib-Glu(OtBu)-Gly-OSu |  |  |  |  | 79
